# Data as given in PubChem BioAssay AID686937 (Drosophila RNAi Screening Center, 2013)
# Test: 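Knock-downs that reduce output of a secreted reporter enzyme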 (primary screen)
# Cells: Drosophila S2 cells expressing secreted horseradish peroxidase
# Reagent: long dsRNA against Drosophila genes
# Time to read-out: about 5.5 days (5 days dsRNA, then 12 h reporter induction)
# Conditions: reporter expression induced after 5 days of dsRNA, read 12 h later; inducer not stated
# Measured: 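Chemiluminescent measurement of peroxidase in the medium 12 h after reporter induction, following 5 days of dsRNA, given as a z-score per plate; higher means more secretion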
# Reading the numbers: z-score: higher = more reporter secreted into medium
# In all, the deposit lists about 23,000 reagents; this is an unselected part of those with a known target gene and a result. 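Reduced-secretion tags in replicate 1 do not always agree with the z-scores; no criterion for assigning the tags was given.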 Reagents against one gene are numbered here. A plus sign joins genes that one reagent is predicted to hit. Further read-outs or replicates are left out here. No sequences are given here. The record does not give: the amount of reagent.
predicted target,dsRNA no.,"z-score, replicate 1"
foi (GeneID 38976),1,-0.29
robo2 (GeneID 44522),1,0.29
robo2 (GeneID 44522),2,0.44
robo2 (GeneID 44522),3,0.17
robo2 (GeneID 44522),4,0.18
CG17234 (GeneID 59225),1,0.17
Agpat2 (GeneID 34176),1,0.3
CG13869 + CG11099,1,0.61
CG1724 (GeneID 33097),1,0.01
HGTX (GeneID 53446),1,0.45
HGTX (GeneID 53446),2,0.41
Nufip (GeneID 40043),1,0.24
CG11106 (GeneID 32062),1,0.33
lky (GeneID 33006),1,0.2
TBC1D16 (GeneID 34431),1,0.09
Scamp (GeneID 32470),1,0.65
Toll-4 (GeneID 34235),1,0.45
MFS10 (GeneID 32263),1,0.32
CG4465 (GeneID 42374),1,0.37
oc (GeneID 31802),1,0.42
eEF5 (GeneID 37846),1,-0.32
Rpt1 (GeneID 35701),1,-5.09
CG3902 (GeneID 40059),1,0.51
ND-13A (GeneID 33744),1,0.06
mRRF2 (GeneID 42670),1,0.45
CG13538 (GeneID 37667),1,0.09
Obp56a (GeneID 37264),1,0.41
kek4 (GeneID 34718),1,0.26
CG9458 (GeneID 41214),1,-0.01
toy (GeneID 43833),1,0.1
l(2)09851 (GeneID 46662),1,0.05
tctn + B9d2,1,0.45
tyn (GeneID 3354987),1,0.44
Ets65A (GeneID 38700),1,0.32
Ets65A (GeneID 38700),2,0.58
Ets65A (GeneID 38700),3,0.39
Polr3H (GeneID 39310),1,-0.46
CG12723 (GeneID 32271),1,-0.97
bves (GeneID 33083),1,-0.22
bves (GeneID 33083),2,0.28
bves (GeneID 33083),3,0.43
CG6847 (GeneID 32778),1,-0.44
CG6847 (GeneID 32778),2,0.13
CG17298 (GeneID 42529),1,0.43
raptor (GeneID 31543),1,-3.11
CG7326 (GeneID 32882),1,-0.17
SelG (GeneID 32149),1,0.05
M6 (GeneID 40383),1,0.08
DppIII (GeneID 40996),1,0.57
List (GeneID 37157),1,0.29
Sgs5bis (GeneID 42113),1,-0.16
CG14892 (GeneID 42016),1,-0.71
TwdlT (GeneID 44790),1,0.37
TwdlT (GeneID 44790),2,-0.82
LysD + LysC (retired record),1,0.12
LysD + LysC (retired record),2,-2.33

3 entries from above, sorted by “z-score, replicate 1”, highest first:
predicted target,dsRNA no.,"z-score, replicate 1"
Scamp (GeneID 32470),1,0.65
Toll-4 (GeneID 34235),1,0.45
TBC1D16 (GeneID 34431),1,0.09
